Data reported in PubChem BioAssay AID504444 (National Center for Advancing Translational Sciences (NCATS), 2011).
Hit rate of the full screen: of about 360,000 compounds, about 7,500 (2.1%) were called active. Inconclusive results, whose numbers are uncertain, are shown with a selection of clear calls. Calls follow the shape of the dose curve; as a rule, active = well fitted inhibition curve with a large enough effect; inconclusive = small, poorly fitted or top-dose-only effect, or effect the other way; inactive = flat fitted curve, though single readings scatter. Where the call is inconclusive, the potency comes from a doubtful curve fit.
Potency is read from the fitted curve at half-maximal effect.

Test: Nrf2 qHTS screen for inhibitors; also: nearly all actives have a fitted effect of over 60% in size
Conditions: A549 ARE-Fluc reporter, luciferase luminescence, 18-24 h; series mostly up to 46 µM
Outline: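 Two sequential reads on A549 ARE_Fluc cells exposed to compound for 18-24 h: a CellTiter-Fluor fluorescence read for viability, then a luciferase luminescence read for Nrf2/ARE activity.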
With CNS(=O)(=O)c1cn(CC(=O)N2CCN(c3cc(C)ccc3C)CC2)cc1S(=O)(=O)NC the Potency was inconclusive: 3.66 µM [falling, single point]. For Cc1ccc(C(=O)c2c(NC(=O)CSc3nnc(N)s3)sc3c2CCCC3)cc1, the Potency was inconclusive: 29.1 µM [falling, single point]. In the case of Brc1ccc(-c2csc(/N=C/N3CCCC3)n2)cc1, the Potency is reported as active: 11.6 µM. In the case of CCOc1ccccc1N1CCN(C(=O)NCc2ccc(Cl)cc2)CC1, the Potency is reported as inconclusive: 25.9 µM [falling, partial curve, poor fit]. For O=C(Nc1ccc2oc(-c3ccccc3F)nc2c1)c1ccc2c(c1)OCCO2, the Potency was active: 13 µM. With CCn1nc(-c2ccc(C)cc2)nc2c(=O)n(C)c(=O)nc1-2 the Potency was inconclusive: 23.1 µM [falling, single point]. With O=C(NCC(=O)N1CCN(Cc2ccccc2)CC1)c1ccc(Cl)cc1 the Potency was active: 29.1 µM. With Cc1ccccc1N1CCN(c2ncnc3c2cnn3Cc2ccc(Cl)cc2)CC1 the Potency was active: 18.4 µM. In the case of COc1ccc(CCNC2=C(Cl)C(=O)N(Cc3ccccc3)C2=O)cc1OC, the Potency is reported as inconclusive: 29.1 µM [falling, single point]. With CCOC(=O)C1=C(C)NC(=S)NC1c1ccco1 (stereo not given) the Potency was inconclusive: 16.4 µM [activator, single point]. In the case of C=CCNC(=S)N/N=C(\C)c1ccccn1, the Potency is reported as active: 0.58 µM. For CCOc1ccc(S(=O)(=O)Nc2ccccc2C(=O)NCc2ccco2)cc1, the Potency was “inactive”. For COc1ccc(CNC(=O)C2CC(c3cccc([N+](=O)[O-])c3)=NO2)cc1 (stereo not given), the Potency was inconclusive: 32.6 µM [activator, single point]. For Cc1cc(C(=O)NC2CCCc3ccccc32)ccc1[N+](=O)[O-] (stereo not given), the Potency was inconclusive: 10.3 µM [activator, partial curve, poor fit]. In the case of CC12C=CC(=O)C=C1C(F)CC1C3CCC(O)(C(=O)CO)C3(C)CC(O)C12F (stereo not given), the Potency is reported as active: 0.0052 µM. In the case of COc1ccc(Cl)cc1NC(=O)CSc1nc(-c2ccco2)cc(C(F)(F)F)n1, the Potency is reported as inconclusive: 16.4 µM [falling, single point]. For NC(=O)C1CCN(C(=O)Cn2c(-c3cccs3)cc3ccccc32)CC1, the Potency was inconclusive: 4.11 µM [activator, partial curve, poor fit]. With CC(C)(C)c1cc(C(=O)NNS(=O)(=O)c2ccccc2)n[nH]1 the Potency was inconclusive: 0.092 µM [falling, full curve, poor fit]. In the case of CCCCN(c1ccccc1)S(=O)(=O)c1ccc2c(c1)CC(C)N2C(=O)C1CC1 (stereo not given), the Potency is reported as inconclusive: 16.4 µM [falling, single point]. For Cc1ccc(S(=O)(=O)N(C)CCCN(C)c2nc(-c3cccs3)nc3ccccc23)cc1, the Potency was “inactive”. In the case of CCc1ccccc1Nc1nc2ccccc2n2cnnc12, the Potency is reported as “inactive”. For Cc1ccc2[nH]cc(CCNC(=O)c3ccco3)c2c1, the Potency was inconclusive: 1.46 µM [activator, partial curve, poor fit]. For Cc1ccc(NC(=S)Nc2ccc(C(C)C)cc2)cc1S(=O)(=O)N1CCCCCC1, the Potency was active: 11.6 µM. For NC(=S)N/N=C/c1ccc(-c2ccc([N+](=O)[O-])cc2)o1, the Potency was “inactive”. In the case of CCOc1ccccc1C1C2=C(COC2=O)Nc2cc3c(cc21)OCO3 (stereo not given), the Potency is reported as “inactive”. For CC(C)N(CCC(=O)c1ccc2ccccc2c1)Cc1ccccc1, the Potency was inconclusive: 20.6 µM [falling, single point]. In the case of C/C(CS(=O)(=O)c1ccccc1)=N\O, the Potency is reported as “inactive”. For COc1cccc(NC(=O)Cc2nc(-c3ccccc3)sc2-c2ccc(C)cc2)c1, the Potency was inconclusive: 18.4 µM [activator, partial curve]. With CCS(=O)(=O)N1CCc2cc(C(=O)Nc3cc(C(F)(F)F)ccc3Cl)ccc21 the Potency was inconclusive: 20.6 µM [falling, single point]. For O=C(c1ccccc1)N1CCN(C(=O)c2nn3c(C(F)(F)F)cc(-c4ccccc4)nc3c2Br)CC1, the Potency was inconclusive: 8.2 µM [falling, partial curve, poor fit]. With CCOC(=O)C1=C(CN2CCN(c3cc(C)ccc3C)CC2)NC(=O)NC1c1ccc(Cl)cc1 (stereo not given) the Potency was active: 20.6 µM. In the case of O=C(CSc1nc(C2CC2)nc2ccccc12)N1CCCCC1, the Potency is reported as inconclusive: 14.6 µM [activator, single point]. With O=C(Nc1ccc(F)c(Cl)c1)c1ccc2c(=O)n3c(nc2c1)CCCCC3 the Potency was inconclusive: 23.1 µM [falling, single point]. For NS(=O)(=O)c1ccc(CCNC(=O)C2CC(=O)N(Cc3ccccc3Cl)C2)cc1 (stereo not given), the Potency was “inactive”. In the case of CCNC(=S)N(CCc1c(C)[nH]c2ccccc12)Cc1cc(OC)c(OC)c(OC)c1, the Potency is reported as inconclusive: 20.6 µM [falling, single point]. In the case of O=C(c1cc(-c2cccs2)nc2ccccc12)N1CCN(CCO)CC1, the Potency is reported as inconclusive: 6.51 µM [activator, partial curve, poor fit]. For CCOC(=O)c1c(NC(=O)/C=C/C(=O)O)sc(C)c1-c1ccc(Cl)cc1, the Potency was “inactive”. In the case of C/C(=N\NC(=O)c1cc(Br)ccc1O)c1cccs1, the Potency is reported as inconclusive: 29.1 µM [activator, single point]. In the case of COc1ccc(-n2cc(C(=O)c3ccccc3O)cn2)cc1, the Potency is reported as inconclusive: 13 µM [activator, partial curve]. In the case of CC(C)(C)c1ccc(C(=O)Nc2ccc(C(=O)N3CCCC3)cc2)cc1, the Potency is reported as inconclusive: 25.9 µM [falling, partial curve, poor fit]. For Cc1ccc(C(O)(C(=O)NN(C(=O)c2ccccc2)c2ccccc2)c2ccc(C)cc2)cc1, the Potency was “inactive”. For CC(C)Sc1nnc([C@@H]2CCCN2C(=O)OC(C)(C)C)o1, the Potency was inconclusive: 25.9 µM [activator, partial curve, poor fit]. With COc1ccc(CNC(=O)CCc2nnc3n(CC(C)C)c(=O)c4ccccc4n23)cc1 the Potency was “inactive”. In the case of COc1ccc(C(=O)N2CCC(c3nc(-c4ccc(S(=O)(=O)N5CCCC5)cc4)no3)CC2)cc1, the Potency is reported as active: 20.6 µM. With CCn1nc(C)cc1C(=O)NC1CCCc2c1cnn2-c1ccc(C)c(C)c1 (stereo not given) the Potency was active: 11.6 µM. For O=C(NC(C(=O)N/N=C/c1ccccn1)c1n[nH]c(=O)c2ccccc12)c1ccccc1 (stereo not given), the Potency was inconclusive: 5.17 µM [falling, single point]. In the case of O=C(Nc1nc(-c2ccccc2)cs1)c1cccc(S(=O)(=O)N2CCN(Cc3ccccc3)CC2)c1, the Potency is reported as “inactive”. In the case of COC(=O)c1cc2occc2n1Cc1cccc(C)c1, the Potency is reported as inconclusive: 0.13 µM [activator, full curve, poor fit]. In the case of CCCn1c(SCC(=O)N2CCN(c3ccccc3)CC2)nc2ccccc2c1=O, the Potency is reported as “inactive”. For CCCCN1CC(C(=O)NCc2ccc(C)cc2)CC1=O (stereo not given), the Potency was “inactive”. In the case of CC(C)(C)c1cc(C(C)(C)C)cc(S(=O)(=O)CCc2ccccn2)c1, the Potency is reported as inconclusive: 25.9 µM [falling, partial curve, poor fit]. For CCOC(=O)Nc1ccc(S(=O)(=O)NCc2ccccc2)cc1, the Potency was inconclusive: 13 µM [falling, partial curve, poor fit]. For C/C(=N/NC(=O)c1ccco1)c1cccnc1, the Potency was inconclusive: 10.3 µM [activator, partial curve, poor fit]. In the case of Cc1cccc(OCCOC(=O)c2c(-c3ccccc3)noc2C)c1, the Potency is reported as inconclusive: 18.4 µM [activator, partial curve]. In the case of C/C(=N\Nc1nc(C)cc(-c2ccccc2)n1)c1ccc(C)o1, the Potency is reported as inconclusive: 14.6 µM [falling, partial curve]. With Nc1cc(N)nc(SCC(=O)Nc2cccc(S(=O)(=O)N3CCCCC3)c2)n1 the Potency was inconclusive: 20.6 µM [falling, single point]. For O=C(c1cccc(S(=O)(=O)N2CCCC2)c1)N1CCN(c2ccccc2)CC1, the Potency was inconclusive: 32.6 µM [falling, partial curve, poor fit]. With CCCCCCCCCCn1ccc(=N)cc1 the Potency was active: 14.6 µM. For C/C=C1\COC(C(=O)NCc2ccccn2)(C(F)(F)F)C=C1C=C(C)C (stereo not given), the Potency was “inactive”. With CC1CCN(c2c([N+](=O)[O-])nn(-c3ccc4c(c3)OCCO4)[n+]2[O-])CC1 the Potency was inconclusive: 5.17 µM [activator, partial curve]. For O=C(CSc1nnc2ccc3ccccc3n12)c1ccc(F)cc1, the Potency was inconclusive: 16.4 µM [activator, partial curve]. In the case of COc1ccccc1CNC(=O)c1cnc2sc(N3CCCCCC3)nn2c1=O, the Potency is reported as “inactive”. In the case of Cn1c(CN2CCOCC2)nnc1SCC(=O)Nc1ccc([N+](=O)[O-])cc1O, the Potency is reported as “inactive”. In the case of Cc1ccc(C(=O)Nc2onc3c2CCCC3)cc1, the Potency is reported as inconclusive: 0.184 µM [falling, full curve, poor fit]. In the case of COc1ccc(Nc2nnc(SCC3CCCO3)s2)cc1 (stereo not given), the Potency is reported as inconclusive: 13 µM [activator, partial curve, poor fit]. With CC(=O)Nc1ccc(S(=O)(=O)N2CCN=C2SCc2cccc(C)c2)cc1 the Potency was inconclusive: 20.6 µM [falling, partial curve, poor fit]. With O=C(N/N=C/c1ccc(OCc2ccc(F)cc2)cc1)c1ccccc1 the Potency was inconclusive: 29.1 µM [falling, single point]. In the case of Cc1cccc(NC(=O)c2ccc(-c3nc(CSc4ccccc4)c(C)o3)cc2)c1C, the Potency is reported as active: 13 µM. For Cc1cccc(NC(=O)C2CCN(S(=O)(=O)c3c(C)nn(C)c3C)CC2)n1, the Potency was inconclusive: 29.1 µM [falling, single point]. With CCSC1=C(C#N)C(c2ccc3c(c2)OCO3)C2=C(CCCC2=O)N1 (stereo not given) the Potency was inconclusive: 16.4 µM [falling, single point].
